# Laboratory results published in patent US11692025.
# By UniProt entry, the sequences of proteins in these tests, tags left out. Residues count along the entry.
# UniProt P02768, residues 25-609: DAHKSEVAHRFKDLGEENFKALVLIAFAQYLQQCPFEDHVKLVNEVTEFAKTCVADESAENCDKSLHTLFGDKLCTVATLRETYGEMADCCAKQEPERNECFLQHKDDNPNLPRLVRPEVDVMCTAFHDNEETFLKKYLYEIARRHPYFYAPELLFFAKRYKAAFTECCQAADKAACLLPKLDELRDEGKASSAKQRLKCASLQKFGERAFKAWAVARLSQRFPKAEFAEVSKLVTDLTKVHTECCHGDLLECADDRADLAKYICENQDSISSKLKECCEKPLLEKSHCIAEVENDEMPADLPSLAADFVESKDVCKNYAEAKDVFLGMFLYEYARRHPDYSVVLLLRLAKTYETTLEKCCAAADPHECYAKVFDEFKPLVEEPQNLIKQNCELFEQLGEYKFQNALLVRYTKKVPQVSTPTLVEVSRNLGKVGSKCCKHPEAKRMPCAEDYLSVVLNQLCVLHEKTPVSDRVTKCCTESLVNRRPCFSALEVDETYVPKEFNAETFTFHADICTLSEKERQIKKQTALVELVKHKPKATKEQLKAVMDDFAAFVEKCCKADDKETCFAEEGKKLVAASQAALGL
# These are yes or no findings as the source states them, for the method shown. Some entries that bind do so weakly or less than the wild type.
# B1: SEQ ID NO 37 (VNAR)
# VNAR: TRVDQTPRTATKETGESLTINCVLTDTSYPLYSTYWYRKNPGSSNKERISISGRYVESVNKGTKSFSLRIKDLTVADSATYICRAMGTBSWTGDGAGTVLTVN
# B2: BH4 (VNAR)
# chain: TRVDQSPSSLSASVGDRVTITCVLTDTSYPLYSTYWYRKNPGSSNKEQISISGRYSESVNKGTKSFTLTISSLQPEDFATYYCRAMGTNLWTGDGA
# Key:
# [1] = target: human serum albumin (human) (UniProt P02768); test: phage display panning on HSA and screening
# [2] = target: human serum albumin (human) (UniProt P02768); test: phage and periprep ELISA on HSA; purified 6xHis-tagged VNAR
Binder,binding [1],binding [2]
B1,binds,
B2,,binds
